From US7135462B2, “Hepatitis C virus inhibitors” (priority 2003, dated 2006) come the findings set out here.

A value given as a limit tells only on which side of the number the result lay.

This test concerns the target T1, HCV NS3/4A protease complex (BMS strain) (UniProt P27958, C1454S/C1711G, species not given).
T1 construct: for H77 and J4L6S; fused on or other part: Three-lysine solubilising tail at the C-terminus of NS4A
The test is described as follows: Recombinant HCV NS3/4A protease complex FRET peptide assay. In kind it is biochemical, Hepatitis C virus (HCV), genotype 1a. The settings on record: NS3/4A BMS strain; activity range class. From the text:
Recombinant HCV NS3/4A Protease Complex FRET Peptide Assay
Serum from an HCV-infected patient was obtained from Dr. T. Wright, San Francisco Hospital. An engineered full-length cDNA (compliment deoxyribonucleic acid) template of the HCV genome (BMS strain) was constructed from DNA fragments obtained by reverse transcription-PCR (RT-PCR) of serum RNA (ribonucleic acid) and using primers selected on the basis of homology between other genotype 1a strains.
The H77 and J4L6S strains were used for production of recombinant NS3/4A protease complexes. […] Briefly, a three-lysine solubilizing tail was added at the 3′-end of the NS4A coding region. […] Briefly, the NS3/4A protease complex expression was induced with 0.5 millimolar (mM) Isopropyl β-D-1-thiogalactopyranoside (IPTG) for 22 hours (h) at 20° C. […] The cells were resuspended in lysis buffer (10 mL/g) consisting of 25 mM N-(2-Hydroxyethyl)piperazine-N′-(2-Ethane Sulfonic acid) (HEPES), pH 7.5, 20% glycerol, 500 mM Sodium Chloride (NaCl), 0.5% Triton X-100, 1 microgram/milliliter (“μg/mL”) lysozyme, 5 mM Magnesium Chloride (MgCl2), 1 μg/ml DnaseI, 5 mM β-Mercaptoethanol (βME), Protease inhibitor—Ethylenediamine Tetraacetic acid (EDTA) free (Roche), homogenized and incubated for 20 minutes (min) at 4° C. The homogenate was sonicated and clarified by ultra-centrifugation at 235000 g for 1 h at 4° C. […]

For `C=C[C@@H]1C[C@]1(NC(=O)[C@@H]1C[C@@H](Oc2cc(-c3ccccc3)nc3nc(C)ccc23)CN1C(=O)[C@@H](NC(=O)OC(C)(C)C)C(C)(C)C)C(=O)NS(=O)(=O)C1(Cc2ccccc2)CC1` [Cmpd 800], the IC50 is below 100 nM.
